Percent effect of library compounds

Chains of the proteins cited; added tags and fusions are not shown. Residues count along the entry.
UniProt Q4DA54, 1-478: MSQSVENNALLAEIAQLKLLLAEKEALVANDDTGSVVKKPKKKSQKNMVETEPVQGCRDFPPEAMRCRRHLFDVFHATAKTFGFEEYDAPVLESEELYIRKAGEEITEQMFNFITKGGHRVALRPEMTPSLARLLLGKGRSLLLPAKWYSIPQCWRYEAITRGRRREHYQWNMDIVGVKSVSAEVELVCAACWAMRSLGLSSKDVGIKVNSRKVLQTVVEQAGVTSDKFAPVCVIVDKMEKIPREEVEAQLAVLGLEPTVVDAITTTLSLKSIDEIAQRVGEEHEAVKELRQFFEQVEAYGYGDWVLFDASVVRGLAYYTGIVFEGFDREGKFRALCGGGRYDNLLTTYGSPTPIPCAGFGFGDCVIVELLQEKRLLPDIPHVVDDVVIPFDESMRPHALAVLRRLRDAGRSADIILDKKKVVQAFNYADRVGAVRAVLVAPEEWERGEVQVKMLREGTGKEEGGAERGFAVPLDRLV
UniProt A4I591, 1-473: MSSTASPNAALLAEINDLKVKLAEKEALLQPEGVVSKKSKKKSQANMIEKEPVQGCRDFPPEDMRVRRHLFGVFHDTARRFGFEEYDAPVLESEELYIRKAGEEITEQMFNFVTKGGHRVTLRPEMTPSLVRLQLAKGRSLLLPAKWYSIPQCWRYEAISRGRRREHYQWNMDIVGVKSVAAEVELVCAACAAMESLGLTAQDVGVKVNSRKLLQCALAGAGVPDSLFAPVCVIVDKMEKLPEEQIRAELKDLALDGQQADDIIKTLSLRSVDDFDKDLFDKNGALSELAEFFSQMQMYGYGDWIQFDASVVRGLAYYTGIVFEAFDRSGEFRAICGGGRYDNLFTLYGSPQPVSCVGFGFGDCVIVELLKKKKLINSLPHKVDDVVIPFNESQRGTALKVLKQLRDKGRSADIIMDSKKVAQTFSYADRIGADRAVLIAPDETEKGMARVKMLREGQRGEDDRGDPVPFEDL
UniProt Q8IDJ8, 1-583: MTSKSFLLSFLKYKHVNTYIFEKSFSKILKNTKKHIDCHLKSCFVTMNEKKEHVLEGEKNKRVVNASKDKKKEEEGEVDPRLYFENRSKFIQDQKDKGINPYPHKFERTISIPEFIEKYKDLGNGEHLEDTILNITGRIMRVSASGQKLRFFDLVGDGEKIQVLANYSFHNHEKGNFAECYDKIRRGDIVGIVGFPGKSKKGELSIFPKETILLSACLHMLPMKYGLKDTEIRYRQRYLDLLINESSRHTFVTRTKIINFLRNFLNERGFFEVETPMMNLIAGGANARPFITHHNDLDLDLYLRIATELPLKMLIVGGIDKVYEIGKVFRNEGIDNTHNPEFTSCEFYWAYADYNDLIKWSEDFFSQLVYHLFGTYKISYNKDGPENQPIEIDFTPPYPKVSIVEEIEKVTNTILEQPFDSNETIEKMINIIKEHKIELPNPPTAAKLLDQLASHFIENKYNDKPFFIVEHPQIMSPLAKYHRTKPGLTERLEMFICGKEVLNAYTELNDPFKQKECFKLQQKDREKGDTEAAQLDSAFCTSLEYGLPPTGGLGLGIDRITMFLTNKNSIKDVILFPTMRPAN
UniProt P9WNZ1, whole entry: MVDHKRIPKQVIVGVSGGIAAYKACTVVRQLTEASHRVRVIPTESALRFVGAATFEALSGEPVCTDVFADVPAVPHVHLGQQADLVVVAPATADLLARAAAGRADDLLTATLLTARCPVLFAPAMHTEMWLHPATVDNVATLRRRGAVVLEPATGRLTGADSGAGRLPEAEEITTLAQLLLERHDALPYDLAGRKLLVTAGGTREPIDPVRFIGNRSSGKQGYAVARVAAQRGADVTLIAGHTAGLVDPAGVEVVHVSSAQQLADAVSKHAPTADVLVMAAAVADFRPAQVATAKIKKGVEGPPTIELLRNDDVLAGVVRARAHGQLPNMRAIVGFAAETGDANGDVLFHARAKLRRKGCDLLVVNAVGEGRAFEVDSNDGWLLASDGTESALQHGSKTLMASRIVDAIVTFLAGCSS

TcHisRS: 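Histidine-tRNA ligase, Trypanosoma cruzi CL Brener (UniProt Q4DA54). Enzyme assay of histidyl-tRNA synthetase; the read-out is not stated. Concentration: 30 µM. The record gives no direction; compounds that gave an IC50 in retests scored well above the rest, so higher reads as stronger inhibition. Size under these conditions: about 69,000 compounds, about 31 of them at 50% or above in at least one test.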
LiHisRS: 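Histidine-tRNA ligase, Leishmania infantum (UniProt A4I591). Enzyme assay of histidyl-tRNA synthetase; the read-out is not stated. Tested at 30 µM. Direction is inferred from retests: higher values go with stronger inhibition. The assay is labelled LdHisRS but filed under L. infantum. Of about 69,000 compounds tested this way, about 410 (0.6%) reached 50% or more in at least one test.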
Toxoplasma: 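Assay of Toxoplasma gondii numbers, read through their beta-galactosidase reporter with a colour substrate. Compounds at 10 µM. Higher reads as fewer parasites (inferred from which compounds were picked for retests). Of about 67,000 compounds tested this way, about 260 (0.38%) reached 50% or more in at least one test.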
PfKRS1: 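Lysine-tRNA ligase, Plasmodium falciparum 3D7 (UniProt Q8IDJ8). Enzyme assay of the cytosolic lysyl-tRNA synthetase in 384-well plates, read by luminescence. Compounds at 30 µM. Higher reads as stronger inhibition, judged from the few compounds that gave an IC50. Size under these conditions: about 69,000 compounds, about 49 of them at 50% or above in at least one test.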
CoaBC: 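Enzyme assay of CoaBC with a phosphate dye (Biomol Green) read at 650 nm. Target: Coenzyme A biosynthesis protein CoaBC, Mycobacterium tuberculosis (UniProt P9WNZ1). Tested at 30 µM. Direction is inferred from only a few compounds that gave an IC50; most scored high, so higher reads as stronger inhibition. Most strong results did not repeat in a second test. Of about 67,000 compounds tested this way, about 40 (0.06%) reached 50% or more in at least one test.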

Results are given as percent effect. The record does not define 0% and 100%; most values in the screen are far below 50% and negative numbers occur (in some assays of this library far below -100). Compounds were drawn at random from those tested, without regard to their results. A dash means the value is not listed here; it may have been measured.

Compound	TcHisRS	LiHisRS	Toxoplasma	PfKRS1	CoaBC
Cc1nc(N)c2ccc(C3CCCCN3)nc2n1.Cl (stereo not given)	-	-	19.79	-	-
COc1cccc(CN2C[C@@H]3COC[C@]3(COCc3ccncc3)C2)c1	1.657	15.04	-	-0.2911	7.969
CN(C)c1cccc(CNCc2ccc(N3CCOCC3)cc2)c1	4.972	3.125	0.918	-6.585	-8.929
O=C1NCCCC1NC(=O)C1(c2cccc(Cl)c2)CCC1 (stereo not given)	4.082	3.226	-12.07	3.149	1.091
CCOc1cc(CN(C)Cc2ccccc2)ccc1OC(F)F	-4.933	-3.529	10.18	3.399	-2.284
Cl.Cl.c1cn(-c2cnc(C3CCNCC3)cn2)cn1	-	-	-6.821	-	-
COc1ccc(C[C@H]2CN(Cc3ccoc3)CC[C@H]2OC)cc1.O=C(O)C(F)(F)F	-	-	17.7	-	-
CC(C)Oc1cc(N2C[C@H](C3CC3)[C@@H](N)C2)nc(N)n1	1.058	3.03	9.4	1.199	-21.89
CN(C)C(=O)CN1C[C@@H]2CC[C@H](C1)N(Cc1ccccc1OCCO)C2	7.843	17.6	-	5.958	3.415
CC(C)[C@H]1COC(=O)N1Cc1nccn1C1CC1	2.809	15.38	3.302	9.564	-13.88
Cn1nc(Cl)cc1C(=O)N1CCC(C(=O)c2nc3ccccc3s2)CC1	0.7576	1.408	28.93	-0.2689	-1.233
CN(C)C(=O)COC1COC2(CCN(CC3CC3)CC2)C1.O=C(O)C(F)(F)F (stereo not given)	-	-	-20.85	-	-
Cn1cnc2c1C(C(=O)N1CCCC1)N(S(C)(=O)=O)CC2 (stereo not given)	2.299	20	-4.065	1.177	4.713
CCC(CO)N(Cc1ccccn1)C(=O)c1ccc2c(c1)CCO2 (stereo not given)	1.245	12.62	-3.965	0.2225	6.696
CCc1nnc(Nc2cccc(C3CCN(S(=O)(=O)N(C)C)CC3)n2)s1	5.243	14	8.25	0.5705	4.585
O=C(Nc1cccs1)N(CCO)CCOCC(F)(F)F	0	9.649	-0.1604	0.4664	-4.912
CC1CCN(c2ncc3c(n2)CN(c2ccc4c(c2)OCO4)C3=O)CC1	3.347	17.92	2.741	5.537	-2.727
Cc1noc(C)c1-c1cccc(CC2CCN(C(=O)CCC(=O)O)C2)n1 (stereo not given)	-0.5405	8.333	1.345	3.054	-3.889
COCCO[C@H]1CCN(c2ccc(C)nn2)[C@H]1Cc1cccnc1.O=C(O)C(F)(F)F.O=C(O)C(F)(F)F	-	-	-3.954	-	-
COCCCn1ccc(NC2CCSCC2)n1	-3.448	13.39	-0.1608	5.913	10.32
CCCS(=O)(=O)N1CCC2(CN(c3ccccc3)C(=O)CN2C)C1.O=C(O)C(F)(F)F (stereo not given)	-	-	2.51	-	-
N#CC1(NC(=O)COc2cc(Cl)cc(Cl)c2)CCSC1 (stereo not given)	1.786	16.13	-3.168	4.769	1.096
CCc1nnc2n1CCN(C(=O)CCOc1ccc(C)cc1C)C2	0.9901	9.783	19.68	0.7124	0.6053
Cc1nnc(CN2CCC(Oc3ccc(C)c(C)c3)CC2)o1	3.03	6.349	3.599	2.962	0.6483
O=c1[nH]c2cc3c(cc2cc1CN1CCCC1c1ccccn1)OCO3 (stereo not given)	11.6	14.46	0.9377	4.168	-1.942
O=C(NC1CC1)[C@@H]1CCO[C@@H]2CCN(Cc3ccsc3)C[C@H]21	4.972	-1.504	-	1.339	8.226
Cc1csc(NC(=O)c2cnc(C3CCCN(C)C3)cn2)n1 (stereo not given)	10.65	17.24	14.42	2.72	1.607
CC(COc1ccccc1)NCc1nc(-c2cccnc2)no1 (stereo not given)	-1.626	22.12	-2.617	3.647	-1.688
Cc1ccc2c(c1)CCC2NCc1c(C)nn(CCO)c1C (stereo not given)	11.22	14.88	-	5.621	1.124
Cc1noc([C@H]2C[C@H]3OCC[C@H]3N(S(C)(=O)=O)C2)n1	6.03	-20.21	-	6.276	-1.131
O=c1n(CCNCc2ccc3ccccc3c2)nc2ccccn12	9.091	3.191	21.6	0	3.367
Cc1ccc(C(=O)N2CCN(Cc3ccsc3)CC2)n1C	6.415	9.459	2.451	4.989	4.042
Nc1nc2c(c(NCc3nc(-c4ccncc4)n[nH]3)n1)CCCC2	8.287	18.31	22.81	3.129	6.865
O=C(c1cnc2ccccn12)N1CCCC(c2ccn[nH]2)C1 (stereo not given)	1.493	13.25	-10.6	-1.542	8.657
Cc1ccc(N2CCC(Nc3ccc4nnc(C)n4n3)CC2)nc1	9.574	12.86	-1.873	4.258	-7.582

For reference, 4 entries once more:

{"compound": "Cc1noc([C@H]2C[C@H]3OCC[C@H]3N(S(C)(=O)=O)C2)n1", "TcHisRS": 6.03, "LiHisRS": -20.21, "PfKRS1": 6.276, "CoaBC": -1.131}
{"compound": "CC1CCN(c2ncc3c(n2)CN(c2ccc4c(c2)OCO4)C3=O)CC1", "TcHisRS": 3.347, "LiHisRS": 17.92, "Toxoplasma": 2.741, "PfKRS1": 5.537, "CoaBC": -2.727}
{"compound": "CCc1nnc(Nc2cccc(C3CCN(S(=O)(=O)N(C)C)CC3)n2)s1", "TcHisRS": 5.243, "LiHisRS": 14, "Toxoplasma": 8.25, "PfKRS1": 0.5705, "CoaBC": 4.585}
{"compound": "CC(COc1ccccc1)NCc1nc(-c2cccnc2)no1", "stereo": "stereo not given", "TcHisRS": -1.626, "LiHisRS": 22.12, "Toxoplasma": -2.617, "PfKRS1": 3.647, "CoaBC": -1.688}

The values are deposited in ChEMBL (CHEMBL3988442, “University of Dundee, Small-Polar-MMV Screening Library” (2021)).